Measurements reported in PubChem BioAssay AID1508597 (Cure First, 2020)
Shown is a random part of the about 2,100 reagents, in one setting of the screen. 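Calls flag viability under 80% in either arm, not effects specific to rucaparib; the reference for percent is not stated.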 Unmarked entries are inactive. Not given: the 100% reference.

- Screen: 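Survival screen with siRNA in ovarian cancer cells derived from patients, with or without rucaparib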 (primary screen)
- System: human ovarian carcinoma lines grown from tumours: OCI-P5x (papillary serous) and OCI-C5x (clear cell)
- Reagent: siRNA pool against human genes, 1.25 pmol siRNA per well
- Duration: 72 h or 96 h, depending on the cell culture
- Conditions: rucaparib 20 µM (about IC30) or vehicle, present until read-out
- Rucaparib or vehicle: Vehicle
- Cell line: OCI-P5x (serous)
- Measured: 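Luminescent ATP-based viability assay read 72 or 96 h after transfection, depending on culture, given as normalised percent viability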
- Scale: viability, normalised: higher = more viable cells remaining
- Active means: 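Active when normalised viability falls below 80 percent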
- Meaning of the calls: active = viability under 80%; inactive = viability 80% or more

CUBN, technical replicate 1 scored viability, normalised (%) = 57.6 (active).
CUBN, technical replicate 2 showed viability, normalised (%) = 78 (active).
For CUBN, technical replicate 3, the entry reads viability, normalised (%) = 73.8 (active).
With SRPK1, technical replicate 1, the values are viability, normalised (%) = 92.1.
SRPK1, technical replicate 2 scored viability, normalised (%) = 73.9 (active).
SRPK1, technical replicate 3 scored viability, normalised (%) = 82.5.
For SUZ12, technical replicate 1, the values are viability, normalised (%) = 86.7.
SUZ12, technical replicate 2 scored viability, normalised (%) = 96.
For SUZ12, technical replicate 3, the entry reads viability, normalised (%) = 90.2.
MAP2K6, technical replicate 1 scored viability, normalised (%) = 105.
MAP2K6, technical replicate 2 scored viability, normalised (%) = 95.5.
With MAP2K6, technical replicate 3 the deposit lists viability, normalised (%) = 95.1.
For MYO3A, technical replicate 1, the values are viability, normalised (%) = 89.1.
For MYO3A, technical replicate 2 the deposit lists viability, normalised (%) = 78.6 (active).
For MYO3A, technical replicate 3, the entry reads viability, normalised (%) = 78.9 (active).
For SMARCB1, technical replicate 1, the entry reads viability, normalised (%) = 66.3 (active).
With SMARCB1, technical replicate 2, the entry reads viability, normalised (%) = 71.9 (active).
SMARCB1, technical replicate 3 showed viability, normalised (%) = 79 (active).
With NLGN1, technical replicate 1, the entry reads viability, normalised (%) = 33.7 (active).
For NLGN1, technical replicate 2, the entry reads viability, normalised (%) = 34 (active).
With NLGN1, technical replicate 3 the deposit lists viability, normalised (%) = 42.3 (active).
NEIL3, technical replicate 1 gave viability, normalised (%) = 62.1 (active).
NEIL3, technical replicate 2 gave viability, normalised (%) = 60.9 (active).
For NEIL3, technical replicate 3, the values are viability, normalised (%) = 56.6 (active).
H4C4, technical replicate 1 gave viability, normalised (%) = 51.3 (active).
H4C4, technical replicate 2 scored viability, normalised (%) = 48.2 (active).
H4C4, technical replicate 3 gave viability, normalised (%) = 53.7 (active).
For YEATS4, technical replicate 1, the values are viability, normalised (%) = 49.4 (active).
YEATS4, technical replicate 2 scored viability, normalised (%) = 50.4 (active).
YEATS4, technical replicate 3 showed viability, normalised (%) = 98.4.
With HK2, technical replicate 1, the values are viability, normalised (%) = 63.2 (active).
For HK2, technical replicate 2 the deposit lists viability, normalised (%) = 65.3 (active).
For HK2, technical replicate 3 the deposit lists viability, normalised (%) = 67.4 (active).
